Reference: patent US20110076262A1
Results are given in words; binding and its absence hold for the method and conditions named. Binding can be weak; no strength is given.

Target: Cynomolgus FGF19 (cynomolgus monkey)
Test: Western blot probed with Ch1A6: cynomolgus liver lysate (immunoprecipitated, SDS-PAGE) and recombinant cynomolgus FGF19 in increasing amount (100 ng or 200 ng according to the text)

B1: chimeric anti-FGF19 antibody 1A6 (antibody, V domains shown)
VH: QVQLKQSGPGLVQPSQSLSITCTVSGFSLTTYGVHWVRQSPGKGLEWLGVIWPGGGTDYNAAFISRLSITKDNSKSQVFFKMNSLLANDTAIYFCVRKEYANLYAMDYWGQGTLLTVSA
VL: DIKMTQSPSSMYASLGERVTIPCKASQDINSFLSWFQQKPGKSPKTLIYRANRLVDGVPSRFSGSGSGQDYSLTISSLEYEDMGIYYCLQYDEFPLTFGAGTKVEIKR
B1 was tested. Which binding did it give?
Its binding is “binds”.
